The target of assay [1] is T1, Thermotoga maritima UvrA (Thermotoga maritima, UniProt Q9WYV0 1-916).
T1 construct: UvrA, Thermotoga maritima; theoretical MW of the dimer printed as 205.8 kDa; the modelling section counts residues 1-916; In the assays it stood with fluorescein-modified DNA, ADP and Mg2+; also called Tm-UvrA; T. maritima (Tm) UvrA; source: BL21 STAR (DE3), pET28-SUMO based plasmid, purified (nickel resin, Ulp1 digestion, nickel resin, gel filtration)
T1 sequence: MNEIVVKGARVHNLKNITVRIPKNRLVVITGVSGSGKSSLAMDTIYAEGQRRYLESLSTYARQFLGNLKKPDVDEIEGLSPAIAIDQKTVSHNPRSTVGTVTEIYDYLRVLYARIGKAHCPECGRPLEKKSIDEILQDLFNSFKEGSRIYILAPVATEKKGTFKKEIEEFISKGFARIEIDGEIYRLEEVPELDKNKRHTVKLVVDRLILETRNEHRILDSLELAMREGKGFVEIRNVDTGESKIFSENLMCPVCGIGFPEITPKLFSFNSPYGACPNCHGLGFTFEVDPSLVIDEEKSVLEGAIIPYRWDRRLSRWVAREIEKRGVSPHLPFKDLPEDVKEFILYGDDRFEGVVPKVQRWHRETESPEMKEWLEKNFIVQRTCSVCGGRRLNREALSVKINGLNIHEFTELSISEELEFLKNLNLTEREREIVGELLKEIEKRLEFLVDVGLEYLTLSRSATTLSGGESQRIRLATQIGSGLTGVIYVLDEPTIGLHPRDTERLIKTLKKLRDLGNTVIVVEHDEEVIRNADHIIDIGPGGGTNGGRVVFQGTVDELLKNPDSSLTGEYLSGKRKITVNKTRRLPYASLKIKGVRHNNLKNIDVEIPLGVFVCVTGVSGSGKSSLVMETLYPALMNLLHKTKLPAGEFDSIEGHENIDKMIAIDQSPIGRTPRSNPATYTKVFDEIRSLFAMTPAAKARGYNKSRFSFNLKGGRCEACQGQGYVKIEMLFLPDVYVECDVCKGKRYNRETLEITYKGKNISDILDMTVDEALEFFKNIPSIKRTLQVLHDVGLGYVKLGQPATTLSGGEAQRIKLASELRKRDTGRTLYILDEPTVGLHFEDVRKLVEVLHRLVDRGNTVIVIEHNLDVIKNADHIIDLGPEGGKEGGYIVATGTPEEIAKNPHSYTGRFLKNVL
Kind of assay: negative-stain EM single-particle reconstruction; SEC-purified UvrA—UvrB—DNA complex at 15 μg/ml on carbon-coated grids, 2% uranyl formate; 10,523 particles, 25.5 Å, no symmetry imposed; DNA not visible; both purified.

The target of assay [2] is T1, Thermotoga maritima UvrA. The assay can be described thus: SEC-MALS; data not shown: peak fractions of the UvrA—UvrB—DNA complex pooled and run again over SEC-MALS; both purified. In general terms: In gel filtration, larger molecules generally elute earlier.

Results are given in words; binding and its absence hold for the method and conditions named. Some results given as binding are weak or reduced against the parent protein; the word gives no strength.

B1: Thermus thermophilus UvrB (natural protein, UniProt Q56243 1-665, looked up)
chain: MTFRYRGPSPKGDQPKAIAGLVEALRDGERFVTLLGATGTGKTVTMAKVIEALGRPALVLAPNKILAAQLAAEFRELFPENAVEYFISYYDYYQPEAYVPGKDLYIEKDASINPEIERLRHSTTRSLLTRRDVIVVASVSAIYGLGDPREYRARNLVVERGKPYPREVLLERLLELGYQRNDIDLSPGRFRAKGEVLEIFPAYETEPIRVELFGDEVERISQVHPVTGERLRELPGFVLFPATHYLSPEGLEEILKEIEKELWERVRYFEERGEVLYAQRLKERTLYDLEMLRVMGTCPGVENYARYFTGKAPGEPPYTLLDYFPEDFLVFLDESHVTVPQLQGMYRGDYARKKTLVDYGFRLPSALDNRPLRFEEFLERVSQVVFVSATPGPFELAHSGRVVEQIIRPTGLLDPLVRVKPTENQILDLMEGIRERAARGERTLVTVLTVRMAEELTSFLVEHGIRARYLHHELDAFERQALIRDLRLGHYDCLVGINLLREGLDIPEVSLVAILDADKEGFLRSERSLIQTIGRAARNARGEVWLYADRVSEAMQRAIEETNRRRALQEAYNLEHGITPETVRKEVRAVIRPEGYEEAPLEADLSGEDLRERIAELELAMWQAAEALDFERAARLRDEIRALEARLQGVRAPEPVPGGRKRKRR
notes: theoretical MW printed as 76.2 kDa; Two UvrB monomers stand in the complex, one on each side of the UvrA dimer; The complex is heterologous (T. maritima UvrA with T. thermophilus UvrB); also called Tt-UvrB; Thermus thermophilus (Tt) UvrB; source: BL21-CodonPlus(DE3)-RIL, pET28 based plasmid, purified (nickel resin, HRV 3C digestion, nickel resin, gel filtration)
On to B1, for which the binding result in assay [1] and in assay [2] was “binds” each time.

These data come from PMC7616783, “A combined structural and biochemical approach reveals translocation and stalling of UvrB on the DNA lesion as a mechanism of damage verification in bacterial nucleotide excision repair” (DNA repair, 2019).
